Results are given in words; binding and its absence hold for the method and conditions named. Binding seen in cells or lysates may run through a third protein. Some results given as binding are weak or reduced against the parent protein; the word gives no strength.
Key:
LRP4N-Myc (rat) = LRP4N-Myc (rat) (UniProt Q9QYP1); experiment: bead pull-down, anti-Myc immunoblot
[1] = molecular target: endogenous LRP4 of mouse muscle cells (mouse) (UniProt Q8VI56); experiment: co-immunoprecipitation from C2C12 myotubes with rabbit anti-LRP4 antibody with or without neuronal agrin, MuSK blot quantified (quantification of FIG. 7A)
[2] = molecular target: endogenous LRP4 of mouse muscle cells (mouse) (UniProt Q8VI56); experiment: co-immunoprecipitation from mouse muscle homogenates with rabbit anti-LRP4 antibody, blot for MuSK
[3] = molecular target: endogenous LRP4 of mouse muscle cells (mouse) (UniProt Q8VI56); experiment: co-immunoprecipitation with anti-LRP4 antibody from C2C12 myotubes; increased in agrin-stimulated myotubes
[4] = molecular target: endogenous LRP4 of mouse muscle cells (mouse) (UniProt Q8VI56); experiment: co-immunoprecipitation with rabbit anti-LRP4 antibody from mouse muscle homogenates
[5] = molecular target: endogenous LRP4 of mouse muscle cells (mouse) (UniProt Q8VI56); experiment: co-immunoprecipitation with rabbit anti-LRP4 antibody from C2C12 myotube lysates, with or without neuronal agrin
[6] = molecular target: endogenous LRP4 of mouse muscle cells (mouse) (UniProt Q8VI56); experiment: co-immunoprecipitation from mouse muscle homogenates

Chains of the proteins cited; added tags and fusions are not shown. Lines headed by an entry give the natural chain unless they say otherwise; changes in a name come on top. A line that says so, or that is headed by a name, gives the form on record, which may keep a tag or linker. Residues count along the entry.
UniProt Q9QYP1, residues 21-1723: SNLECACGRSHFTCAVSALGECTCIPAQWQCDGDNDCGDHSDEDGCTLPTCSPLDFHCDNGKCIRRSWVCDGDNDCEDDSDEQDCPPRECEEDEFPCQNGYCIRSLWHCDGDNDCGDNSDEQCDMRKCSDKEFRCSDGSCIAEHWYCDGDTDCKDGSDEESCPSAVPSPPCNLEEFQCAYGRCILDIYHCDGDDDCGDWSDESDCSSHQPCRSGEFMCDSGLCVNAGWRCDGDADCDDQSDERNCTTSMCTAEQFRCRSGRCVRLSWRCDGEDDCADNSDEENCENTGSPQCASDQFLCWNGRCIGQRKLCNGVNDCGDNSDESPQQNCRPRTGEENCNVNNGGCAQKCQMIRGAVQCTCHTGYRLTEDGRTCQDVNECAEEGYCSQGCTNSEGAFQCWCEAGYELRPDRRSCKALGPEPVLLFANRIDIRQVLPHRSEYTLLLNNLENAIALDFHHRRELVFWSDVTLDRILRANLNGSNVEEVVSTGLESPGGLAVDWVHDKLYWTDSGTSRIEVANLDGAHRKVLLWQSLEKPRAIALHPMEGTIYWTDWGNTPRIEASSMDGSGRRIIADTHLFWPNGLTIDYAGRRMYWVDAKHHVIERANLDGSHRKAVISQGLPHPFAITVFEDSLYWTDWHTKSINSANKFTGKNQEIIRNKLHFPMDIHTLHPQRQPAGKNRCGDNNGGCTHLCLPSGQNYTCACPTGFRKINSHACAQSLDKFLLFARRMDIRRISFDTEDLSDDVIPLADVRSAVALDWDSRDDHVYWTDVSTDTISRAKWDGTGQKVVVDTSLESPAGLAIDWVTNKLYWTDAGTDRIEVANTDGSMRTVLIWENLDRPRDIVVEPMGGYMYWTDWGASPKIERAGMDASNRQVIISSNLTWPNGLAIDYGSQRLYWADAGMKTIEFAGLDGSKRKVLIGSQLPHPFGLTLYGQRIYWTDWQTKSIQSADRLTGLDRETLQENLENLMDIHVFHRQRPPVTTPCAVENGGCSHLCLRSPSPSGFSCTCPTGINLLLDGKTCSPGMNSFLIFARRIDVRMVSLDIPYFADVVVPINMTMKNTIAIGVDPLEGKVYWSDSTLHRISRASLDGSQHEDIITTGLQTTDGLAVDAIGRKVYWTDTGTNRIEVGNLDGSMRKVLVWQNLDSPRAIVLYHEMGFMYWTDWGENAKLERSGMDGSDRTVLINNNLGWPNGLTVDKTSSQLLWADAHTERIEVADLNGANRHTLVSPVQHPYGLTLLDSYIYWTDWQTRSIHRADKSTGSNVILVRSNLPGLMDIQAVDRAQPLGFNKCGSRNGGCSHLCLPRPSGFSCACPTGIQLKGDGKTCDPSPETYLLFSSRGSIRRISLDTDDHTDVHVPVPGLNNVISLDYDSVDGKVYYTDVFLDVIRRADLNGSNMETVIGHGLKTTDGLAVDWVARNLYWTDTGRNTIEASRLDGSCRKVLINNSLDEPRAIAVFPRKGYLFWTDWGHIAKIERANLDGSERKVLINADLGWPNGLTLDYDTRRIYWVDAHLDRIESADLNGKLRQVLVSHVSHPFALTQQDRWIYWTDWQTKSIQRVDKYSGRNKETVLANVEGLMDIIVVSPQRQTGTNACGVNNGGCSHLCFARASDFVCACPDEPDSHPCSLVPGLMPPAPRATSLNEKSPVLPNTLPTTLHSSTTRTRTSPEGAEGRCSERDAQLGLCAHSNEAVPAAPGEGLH
UniProt Q8VI56, residues 21-1905: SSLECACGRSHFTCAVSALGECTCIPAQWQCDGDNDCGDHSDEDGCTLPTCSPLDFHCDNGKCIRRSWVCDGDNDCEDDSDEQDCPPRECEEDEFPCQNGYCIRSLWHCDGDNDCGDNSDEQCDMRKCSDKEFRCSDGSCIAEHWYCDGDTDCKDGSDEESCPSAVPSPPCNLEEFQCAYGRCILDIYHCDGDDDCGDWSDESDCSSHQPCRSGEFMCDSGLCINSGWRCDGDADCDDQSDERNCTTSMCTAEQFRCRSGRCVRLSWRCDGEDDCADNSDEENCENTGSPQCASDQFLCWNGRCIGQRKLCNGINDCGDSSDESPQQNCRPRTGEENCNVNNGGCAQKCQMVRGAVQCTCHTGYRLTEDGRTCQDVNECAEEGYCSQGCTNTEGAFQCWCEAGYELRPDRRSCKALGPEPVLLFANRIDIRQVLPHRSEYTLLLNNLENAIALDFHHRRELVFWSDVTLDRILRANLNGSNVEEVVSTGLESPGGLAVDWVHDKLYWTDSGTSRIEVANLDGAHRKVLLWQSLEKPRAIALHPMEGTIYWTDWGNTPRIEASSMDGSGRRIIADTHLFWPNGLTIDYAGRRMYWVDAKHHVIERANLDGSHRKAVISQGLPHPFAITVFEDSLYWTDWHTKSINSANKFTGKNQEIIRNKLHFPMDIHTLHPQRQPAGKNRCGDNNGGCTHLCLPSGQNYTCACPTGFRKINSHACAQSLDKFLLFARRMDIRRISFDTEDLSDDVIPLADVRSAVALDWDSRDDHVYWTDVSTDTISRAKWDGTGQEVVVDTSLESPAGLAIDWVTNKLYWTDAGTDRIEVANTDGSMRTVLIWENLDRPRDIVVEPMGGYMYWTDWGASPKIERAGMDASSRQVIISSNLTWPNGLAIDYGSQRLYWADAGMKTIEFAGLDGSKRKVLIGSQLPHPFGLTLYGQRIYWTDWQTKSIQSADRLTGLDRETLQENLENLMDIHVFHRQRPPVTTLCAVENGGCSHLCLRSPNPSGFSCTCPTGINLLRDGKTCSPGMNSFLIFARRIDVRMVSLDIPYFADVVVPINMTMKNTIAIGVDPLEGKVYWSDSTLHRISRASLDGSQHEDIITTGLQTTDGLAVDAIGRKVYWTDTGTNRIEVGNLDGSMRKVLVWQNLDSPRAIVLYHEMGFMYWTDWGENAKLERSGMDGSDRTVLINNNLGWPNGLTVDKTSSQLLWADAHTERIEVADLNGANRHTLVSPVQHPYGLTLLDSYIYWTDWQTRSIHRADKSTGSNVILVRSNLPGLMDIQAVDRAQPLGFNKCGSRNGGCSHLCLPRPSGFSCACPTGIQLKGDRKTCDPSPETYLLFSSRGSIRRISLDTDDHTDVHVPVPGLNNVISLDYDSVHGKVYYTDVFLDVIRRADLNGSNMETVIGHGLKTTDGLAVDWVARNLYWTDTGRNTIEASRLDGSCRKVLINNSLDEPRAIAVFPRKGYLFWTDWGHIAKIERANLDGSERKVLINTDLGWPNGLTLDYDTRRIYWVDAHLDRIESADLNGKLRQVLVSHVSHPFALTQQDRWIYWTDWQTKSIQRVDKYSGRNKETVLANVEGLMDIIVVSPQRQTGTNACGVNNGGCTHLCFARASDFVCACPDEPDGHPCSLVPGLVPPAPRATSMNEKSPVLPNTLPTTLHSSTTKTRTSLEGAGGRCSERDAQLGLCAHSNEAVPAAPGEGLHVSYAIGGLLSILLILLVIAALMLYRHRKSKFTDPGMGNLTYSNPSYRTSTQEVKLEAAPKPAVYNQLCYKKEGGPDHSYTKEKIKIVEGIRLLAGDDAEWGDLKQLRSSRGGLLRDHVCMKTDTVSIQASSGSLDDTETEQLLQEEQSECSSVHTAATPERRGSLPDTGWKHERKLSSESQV
Flag-nAgrin (P25304, form named): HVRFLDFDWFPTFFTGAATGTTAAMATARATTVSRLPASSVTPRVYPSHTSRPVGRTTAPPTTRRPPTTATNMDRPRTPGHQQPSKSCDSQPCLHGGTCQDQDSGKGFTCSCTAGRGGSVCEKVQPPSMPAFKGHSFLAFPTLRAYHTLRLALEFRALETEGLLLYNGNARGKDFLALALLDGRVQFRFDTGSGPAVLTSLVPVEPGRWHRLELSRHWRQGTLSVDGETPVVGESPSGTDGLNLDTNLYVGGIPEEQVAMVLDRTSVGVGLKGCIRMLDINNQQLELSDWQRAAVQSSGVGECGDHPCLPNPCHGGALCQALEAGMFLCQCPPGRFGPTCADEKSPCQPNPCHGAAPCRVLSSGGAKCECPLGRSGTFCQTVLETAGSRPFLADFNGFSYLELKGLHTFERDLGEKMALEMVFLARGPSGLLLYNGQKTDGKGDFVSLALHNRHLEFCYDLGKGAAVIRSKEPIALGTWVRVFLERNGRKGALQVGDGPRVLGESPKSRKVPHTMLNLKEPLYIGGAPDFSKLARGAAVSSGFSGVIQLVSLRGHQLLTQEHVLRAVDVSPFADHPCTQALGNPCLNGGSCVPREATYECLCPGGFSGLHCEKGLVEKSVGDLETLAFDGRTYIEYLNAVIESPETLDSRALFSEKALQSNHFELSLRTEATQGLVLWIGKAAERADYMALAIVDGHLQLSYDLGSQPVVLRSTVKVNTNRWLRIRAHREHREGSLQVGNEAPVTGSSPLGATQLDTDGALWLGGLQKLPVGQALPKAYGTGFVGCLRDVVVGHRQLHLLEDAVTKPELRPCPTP

Measured: binding

Flag-nAgrin (from UniProt P25304 1137-1951) (ligand)
binds: LRP4N-Myc (rat)

B1: endogenous MuSK of mouse muscle cells (receptor, UniProt Q61006 22-868, looked up)
chain: EKLPKAPVITTPLETVDALVEEVATFMCAVESYPQPEISWTRNKILIKLFDTRYSIRENGQLLTILSVEDSDDGIYCCIANNGVGGAVESCGALQVKMKPKITRPPINVKIIEGLKAVLPCTTMGNPKPSVSWIKGDNALRENSRIAVLESGSLRIHNVQKEDAGQYRCVAKNSLGTAYSKLVKLEVEVFARILRAPESHNVTFGSFVTLRCTAIGIPVPTISWIENGNAVSSGSIQESVKDRVIDSRLQLFITKPGLYTCIATNKHGEKFSTAKAAATVSIAEWSKSQKDSQGYCAQYRGEVCDAVLAKDALVFFNTSYRDPEDAQELLIHTAWNELKAVSPLCRPAAEALLCNHLFQECSPGVVPTPMPICREYCLAVKELFCAKEWQAMEGKAHRGLYRSGMHLLPVPECSKLPSMHRDPTACTRLPYLDYKKENITTFPSITSSRPSADIPNLPASTSSFAVSPAYSMTVIISIVSSFALFALLTIATLYCCRRRKEWKNKKRESTAVTLTTLPSELLLDRLHPNPMYQRMPLLLNPKLLSLEYPRNNIEYVRDIGEGAFGRVFQARAPGLLPYEPFTMVAVKMLKEEASADMQADFQREAALMAEFDNPNIVKLLGVCAVGKPMCLLFEYMAYGDLNEFLRSMSPHTVCSLSHSDLSTRARVSSPGPPPLSCAEQLCIARQVAAGMAYLSERKFVHRDLATRNCLVGETMVVKIADFGLSRNIYSADYYKADGNDAIPIRWMPPESIFYNRYTTESDVWAYGVVLWEIFSYGLQPYYGMAHEEVIYYVRDGNILACPENCPLELYNLMRLCWSKLPADRPSFCSIHRILQRMCERAEGTVGV
not listed: LRP4N-Myc (rat)
binds: all other assays above

Source: patent US20160187355A1 (AUGUSTA UNIVERSITY RESEARCH INSTITUTE, published 2016)
